The list shows a part of the results. The main result of the screen is listed elsewhere. These columns were measured beside it and carry no call. The list favours compounds with an active or inconclusive main result. The note in brackets gives the kind of curve behind each potency; many fits are weak.
Assay: qHTS Assay for Lipid Storage Modulators in Drosophila S3 Cells;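 for cell number change: cells counted by Cell Tracker Red CMTPX staining in the red channel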
Conditions: BODIPY lipid droplet fluorescence, 18-24 h; for cell number change: measured here: cell count max response, cells fed with added oleic acid
How it was run: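 Drosophila S3 cells got compounds at several concentrations plus oleic acid (400 uM solution). Laser-scanning cytometry with 488 nm excitation read lipid droplets at 500-530 nm and cells at 575-640 nm. Percent activity was relative to 20 uM Triacsin C.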

[1] = measured here: cell number channel AC50, cells fed with added oleic acid
[2] = measured here: lipid fluorescence (Fed channel) AC50, cells fed with added oleic acid

Row | Compound | cell number change [%] | AC50 [1] | AC50 [2]
1 | CCOc1ccc(C(C)(C)C)cc1S(=O)(=O)N1CC(C)OC(C)C1 (stereo unspecified) | 7.94 |  | 
2 | CC1CCCC(NC(=O)COC(=O)c2ccccc2NC(=O)c2ccco2)C1C (stereo unspecified) | 66.9 | 0.92 µM [rising, partial curve] | 0.651 µM [rising, full curve]
3 | Cc1cc(OCC(=O)NCCN2CCOCC2)cc(C)c1Cl | 14.4 |  | 29.1 µM [rising, partial curve]
4 | Cc1cc(C)n(-c2nc3ccccc3nc2N2CCC(C)CC2)n1 | -24.5 | 2.59 µM [rising, single point] | 2.31 µM [rising, partial curve]
5 | Cc1ccc(NS(=O)(=O)c2c(C(=O)N3CCCCCC3)c(C)n(C)c2C)c(C)c1 | 8.49 |  | 
6 | O=C(NCc1ccco1)C12CN(Cc3ccccc3)CC1C(c1cccc([N+](=O)[O-])c1)=NO2 (stereo unspecified) | -16.6 | 3.66 µM [rising, single point] | 
7 | O=S(=O)(c1ccc(Cl)cc1)c1nc(-c2ccco2)oc1N1CCCCC1 | -3.06 |  | 32.6 µM [falling, single point]
8 | O=C(c1ccco1)N1CCN(Cc2cc(=O)c(OCc3cccc(F)c3)co2)CC1 | 44.6 | 13 µM [rising, partial curve, poor fit] | 
9 | CC(=O)c1cccc(NC(=O)CN2CCc3cc4c(cc3C2C)OCCCO4)c1 (stereo unspecified) | -2.69 |  | 
10 | CCn1c2ccccc2c2cc(NC(=O)COC(=O)Cc3cn4ccsc4n3)ccc21 | -8.09 | 4.11 µM [rising, single point] | 
11 | Cc1cnc(C(=O)OCC(=O)N(C)CC(=O)Nc2ccccc2Cl)cn1 | -6.73 |  | 23.1 µM [rising, single point]
12 | CSc1ccccc1NC(=O)c1ccco1 | 18.4 |  | 3.66 µM [falling, single point]
13 | O=C(Nc1ccc(S(=O)(=O)NCC2CCCO2)cc1)c1ccc(Cl)cc1[N+](=O)[O-] (stereo unspecified) | -3.08 |  | 5.17 µM [falling, single point]
14 | COc1ccc(CCNC(=O)CSCc2ccc(Cl)cc2)cc1OC | 29.6 | 4.61 µM [rising, full curve, poor fit] | 
15 | CC(=O)Nc1ccc(S(=O)(=O)NCCCN2CCOCC2)cc1 | -17.1 |  | 
16 | CC(=O)c1cccc(NC(=O)CSc2nnc(C(C)N(C)C)n2-c2ccc(F)cc2)c1 (stereo unspecified) | 28.6 |  | 0.13 µM [rising, partial curve, poor fit]
17 | CC(C)c1ccc(NC(=O)C2CC(=O)Nc3nc4ccccc4n32)cc1 (stereo unspecified) | -17.2 |  | 0.411 µM [falling, full curve, poor fit]
18 | CCn1c(=O)n(CC)c2cc(S(=O)(=O)NCCOc3ccccc3)c(C)cc21 | -8.91 |  | 
19 | O=C(Cc1ccc(-n2cnnn2)cc1)NC12CC3CC(CC(C3)C1)C2 | 17.5 |  | 3.66 µM [falling, full curve]
20 | C=C(C)CSc1nc2nc(C)cc(C)n2n1 | 19.2 |  | 7.31 µM [rising, partial curve]

Row | Compound | cell number change [%] | AC50 [1] | AC50 [2]
21 | Oc1ccc(-c2nc3ncccn3c2Nc2ccc3c(c2)OCO3)cc1 | 17.7 |  | 5.8 µM [rising, partial curve]
22 | CCCOC(=O)CSC1=C(C#N)C(c2ccccc2Cl)CC(=O)N1 (stereo unspecified) | -1.66 |  | 
23 | Cc1ccc(N=C2NC(=O)/C(=C/c3cccs3)S2)cc1C | 36.8 | 8.2 µM [rising, partial curve] | 23.1 µM [rising, partial curve]
24 | Cc1ccc(N(CC(O)CN2CCOCC2)S(=O)(=O)c2ccc([N+](=O)[O-])cc2)cc1 (stereo unspecified) | -1.61 |  | 
25 | O=C(N/N=C/c1ccccn1)c1cccs1 |  |  | 0.82 µM [falling, full curve]
26 | O=C(CSc1n[nH]c(-c2ccccc2)n1)Nc1ccc(F)cc1F | -12.7 | 0.0231 µM [falling, full curve, poor fit] | 
27 | CSc1ccccc1Sc1cc(C(=O)O)c2ccccc2n1 | 19.5 |  | 13 µM [rising, partial curve]
28 | Cc1cccc(C)c1OC(=O)CN(c1ccc(Cl)cc1)S(C)(=O)=O | 107 | 11.6 µM [rising, partial curve, poor fit] | 23.1 µM [rising, partial curve]
29 | Cc1ccc(N(C(=O)c2csnn2)C(C(=O)NCc2ccccc2)c2ccccn2)cc1 (stereo unspecified) | -12.4 |  | 29.1 µM [falling, single point]
30 | CCCNCC1COc2ccccc2O1 (stereo unspecified) | -45.2 | 18.4 µM [falling, single point] | 16.4 µM [rising, single point]
31 | Cc1ccc2oc(-c3cccc(NC(=O)c4cc(-n5cnnc5)ccc4Cl)c3)nc2c1 | -76.6 | 11.6 µM [falling, partial curve] | 16.4 µM [falling, partial curve]
32 | O=C(Nc1ccc(Br)c(C(F)(F)F)c1)c1ccccc1 | -9.23 |  | 
33 | CCOC(=O)c1c(NC(=O)CSc2nc3ccccc3o2)sc(C)c1C | -0.445 |  | 
34 | Clc1ccc(/C=N/Nc2ncnc3ccccc23)cc1Cl | -1.76 |  | 6.51 µM [rising, partial curve]
35 | N#Cc1ccccc1S(=O)(=O)N1CCN(C(=O)CCC2CCCC2)CC1 | 9.46 |  | 
36 | Cc1cn[nH]c1 | -7.74 |  | 20.6 µM [falling, single point]
37 | O=C(/C=C/c1ccc(O)c(O)c1)c1ccc(S(=O)(=O)N2CCCCCC2)cc1 | -22.3 |  | 3.66 µM [falling, full curve, poor fit]
38 | COc1ccccc1C1CC(c2cccc(NS(C)(=O)=O)c2)=NN1S(=O)(=O)c1ccccc1 (stereo unspecified) |  | 1.46 µM [falling, single point] | 2.31 µM [falling, partial curve]
39 | COc1ccc(C(NC(=O)C(C)C)c2ccc3cccnc3c2O)cc1 (stereo unspecified) | 2.06 | 6.51 µM [rising, single point] | 
40 | Cc1ccc(Cl)cc1N1CCN(C(=O)C2(S(=O)(=O)c3ccc(Cl)cc3)CC2)CC1 | 68.2 | 11.6 µM [rising, partial curve, poor fit] | 18.4 µM [rising, partial curve]

In another format: results already given.
Row	Compound	cell number change [%]	AC50 [1]	AC50 [2]
1	CCOc1ccc(C(C)(C)C)cc1S(=O)(=O)N1CC(C)OC(C)C1 (stereo unspecified)	7.94		
4	Cc1cc(C)n(-c2nc3ccccc3nc2N2CCC(C)CC2)n1	-24.5	2.59 µM [rising, single point]	2.31 µM [rising, partial curve]
5	Cc1ccc(NS(=O)(=O)c2c(C(=O)N3CCCCCC3)c(C)n(C)c2C)c(C)c1	8.49		
10	CCn1c2ccccc2c2cc(NC(=O)COC(=O)Cc3cn4ccsc4n3)ccc21	-8.09	4.11 µM [rising, single point]	
12	CSc1ccccc1NC(=O)c1ccco1	18.4		3.66 µM [falling, single point]
19	O=C(Cc1ccc(-n2cnnn2)cc1)NC12CC3CC(CC(C3)C1)C2	17.5		3.66 µM [falling, full curve]
29	Cc1ccc(N(C(=O)c2csnn2)C(C(=O)NCc2ccccc2)c2ccccn2)cc1 (stereo unspecified)	-12.4		29.1 µM [falling, single point]
33	CCOC(=O)c1c(NC(=O)CSc2nc3ccccc3o2)sc(C)c1C	-0.445		
37	O=C(/C=C/c1ccc(O)c(O)c1)c1ccc(S(=O)(=O)N2CCCCCC2)cc1	-22.3		3.66 µM [falling, full curve, poor fit]

From PubChem BioAssay AID2685 (National Center for Advancing Translational Sciences (NCATS), 2010)
